The values that follow come from US7534763B2 (Bristol-Myers Squibb Company, priority 2004, dated 2009).

[ ]: non-standard residue; d: D form. Ala(6-(2-MePh)pyridin-3-yl) = Cc1ccccc1-c1ccc(C[C@H](N)C(=O)O)cn1; Bip(2'-Et-4'-OMe) = CCc1cc(OC)ccc1-c1ccc(C[C@H](N)C(=O)O)cc1; αMePhe(2-F) = C[C@](N)(Cc1ccccc1F)C(=O)O; αMeP = C[C@@]1(C(=O)O)CCCN1; dNMeA = CN[C@H](C)C(=O)O

The data set can be described thus: general procedure: Fmoc solid-phase peptide synthesis; Sieber amide resin (loading 0.5 to 0.7 mmol/g); Rink amide MBHA or PAL resin for C-terminal carboxamides; 2-chlorotrityl; DIC/HOBT, HBTU/HOBT, BOP, PyBOP, DIC/HOAT, HATU/HOAT. The following applies: whole synthesis.

For the setting “scale 0.015 mmole”, “H-H[dNMeA]EGT[αMePhe(2-F)]TSD[Bip(2'-Et-4'-OMe)][Ala(6-(2-MePh)pyridin-3-yl)]-NH2 (SMILES CCc1cc(OC)ccc1-c1ccc(C[C@H](NC(=O)[C@H](CC(=O)O)NC(=O)[C@H](CO)NC(=O)[C@@H](NC(=O)[C@](C)(Cc2ccccc2F)NC(=O)[C@@H](NC(=O)CNC(=O)[C@H](CCC(=O)O)NC(=O)[C@@H](C)N(C)C(=O)[C@@H](N)Cc2c[nH]cn2)[C@@H](C)O)[C@@H](C)O)C(=O)N[C@@H](Cc2ccc(-c3ccccc3C)nc2)C(N)=O)cc1)” gave an isolated mass of 5.2 mg and an isolated yield of 18.5% recovery.

Take “H-H[αMeP]EGT[αMePhe(2-F)]THD[Bip(2'-Et-4'-OMe)][Ala(6-(2-MePh)pyridin-3-yl)]-NH2 (SMILES CCc1cc(OC)ccc1-c1ccc(C[C@H](NC(=O)[C@H](CC(=O)O)NC(=O)[C@H](Cc2c[nH]cn2)NC(=O)[C@@H](NC(=O)[C@](C)(Cc2ccccc2F)NC(=O)[C@@H](NC(=O)CNC(=O)[C@H](CCC(=O)O)NC(=O)[C@]2(C)CCCN2C(=O)[C@@H](N)Cc2c[nH]cn2)[C@@H](C)O)[C@@H](C)O)C(=O)N[C@@H](Cc2ccc(-c3ccccc3C)nc2)C(N)=O)cc1)”: the “final HPLC purity” value (Analytical RP-HPLC, YMC ODS S3 (4.6x50 mm), UV/VIS or diode array detector, scale 0.05 mmol) amounted to 94%. Where the note is “scale 0.05 mmol”, this substance yielded an isolated mass of 21.7 mg and an isolated yield of 42% recovery.
